Assay results: the M2OR odorant receptor database
This is a selection; strong and weak results do not stand in their true shares. The calls were merged from several studies; some rest on single wells.

Amino acid sequences for entries named in this document (tags omitted). Chains listed by the source or under a name are the forms on record and can include a tag or linker.
UniProt Q8VF06, as listed by the source: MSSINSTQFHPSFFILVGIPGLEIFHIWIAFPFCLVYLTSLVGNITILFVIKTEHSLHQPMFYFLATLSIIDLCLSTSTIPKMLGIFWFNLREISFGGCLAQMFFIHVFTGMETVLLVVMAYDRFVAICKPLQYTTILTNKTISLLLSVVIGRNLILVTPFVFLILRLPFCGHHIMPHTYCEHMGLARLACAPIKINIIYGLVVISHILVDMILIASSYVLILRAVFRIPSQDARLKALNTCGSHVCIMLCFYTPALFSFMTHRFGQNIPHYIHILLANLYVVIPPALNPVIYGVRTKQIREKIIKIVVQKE
UniProt Q8VG26, as listed by the source: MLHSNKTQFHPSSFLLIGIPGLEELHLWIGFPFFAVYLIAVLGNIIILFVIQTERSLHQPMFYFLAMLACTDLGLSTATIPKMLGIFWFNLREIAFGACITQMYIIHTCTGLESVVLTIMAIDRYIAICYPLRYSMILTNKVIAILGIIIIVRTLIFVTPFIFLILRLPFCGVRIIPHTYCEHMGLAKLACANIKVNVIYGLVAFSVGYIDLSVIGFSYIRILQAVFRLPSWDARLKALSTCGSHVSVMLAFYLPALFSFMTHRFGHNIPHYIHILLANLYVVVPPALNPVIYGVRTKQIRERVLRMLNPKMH

Legend:
Details in all cases: stereoisomer not certain
UniProt Q8VF43 = target: T1, UniProt Q8VF43
T1 sequence (whole entry): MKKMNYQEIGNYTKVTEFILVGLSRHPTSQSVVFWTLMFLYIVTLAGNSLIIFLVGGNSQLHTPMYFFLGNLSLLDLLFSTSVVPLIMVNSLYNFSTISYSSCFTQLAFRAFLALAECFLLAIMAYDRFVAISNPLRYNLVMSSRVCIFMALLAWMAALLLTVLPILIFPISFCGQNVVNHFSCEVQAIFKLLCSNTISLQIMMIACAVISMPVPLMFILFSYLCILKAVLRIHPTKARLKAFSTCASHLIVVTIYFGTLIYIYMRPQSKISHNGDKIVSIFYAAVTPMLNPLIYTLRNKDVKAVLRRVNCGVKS
In short: (§1)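 Each entry records the cell line, G-protein, co-transfected protein and tags used. Methods varied with the source, often transient luciferase assays in mammalian cell lines. A receptor–molecule pair is called responsive (active) if the original authors judged its signal statistically different from baseline and non-responsive (inactive) otherwise.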

UniProt Q8VF52 = target: T2, UniProt Q8VF52
T2 sequence (whole entry): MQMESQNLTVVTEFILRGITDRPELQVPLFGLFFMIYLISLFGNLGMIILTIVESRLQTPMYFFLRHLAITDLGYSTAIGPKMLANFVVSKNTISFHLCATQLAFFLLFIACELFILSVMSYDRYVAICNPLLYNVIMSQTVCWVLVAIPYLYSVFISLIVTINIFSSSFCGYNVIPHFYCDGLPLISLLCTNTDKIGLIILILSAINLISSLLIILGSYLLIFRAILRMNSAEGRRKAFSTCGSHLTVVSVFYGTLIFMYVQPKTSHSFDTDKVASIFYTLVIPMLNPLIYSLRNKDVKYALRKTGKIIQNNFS
In short: as §1

UniProt Q8VFM8 = target: T3, UniProt Q8VFM8
T3 sequence (whole entry): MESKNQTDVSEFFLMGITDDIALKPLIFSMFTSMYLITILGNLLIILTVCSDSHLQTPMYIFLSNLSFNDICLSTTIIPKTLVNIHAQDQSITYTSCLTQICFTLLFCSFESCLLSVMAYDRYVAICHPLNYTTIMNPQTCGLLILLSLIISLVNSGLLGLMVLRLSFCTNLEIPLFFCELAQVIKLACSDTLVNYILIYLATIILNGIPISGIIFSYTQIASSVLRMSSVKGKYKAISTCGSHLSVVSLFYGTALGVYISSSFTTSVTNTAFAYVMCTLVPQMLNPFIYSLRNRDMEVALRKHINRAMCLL
In short: as §1

UniProt Q8VFP5 = target: T4, UniProt Q8VFP5
T4 sequence (whole entry): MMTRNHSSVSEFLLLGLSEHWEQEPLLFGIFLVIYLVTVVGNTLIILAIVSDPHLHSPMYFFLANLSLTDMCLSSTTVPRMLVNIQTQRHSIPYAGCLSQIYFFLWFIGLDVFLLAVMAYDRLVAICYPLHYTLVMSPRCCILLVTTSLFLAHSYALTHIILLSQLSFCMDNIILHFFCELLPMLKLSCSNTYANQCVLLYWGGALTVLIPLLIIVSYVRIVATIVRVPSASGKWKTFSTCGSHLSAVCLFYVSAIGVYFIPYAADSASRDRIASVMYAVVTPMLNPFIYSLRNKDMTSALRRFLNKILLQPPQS
In short: as §1

UniProt Q8VG01 = target: T5, UniProt Q8VG01
T5 sequence (whole entry): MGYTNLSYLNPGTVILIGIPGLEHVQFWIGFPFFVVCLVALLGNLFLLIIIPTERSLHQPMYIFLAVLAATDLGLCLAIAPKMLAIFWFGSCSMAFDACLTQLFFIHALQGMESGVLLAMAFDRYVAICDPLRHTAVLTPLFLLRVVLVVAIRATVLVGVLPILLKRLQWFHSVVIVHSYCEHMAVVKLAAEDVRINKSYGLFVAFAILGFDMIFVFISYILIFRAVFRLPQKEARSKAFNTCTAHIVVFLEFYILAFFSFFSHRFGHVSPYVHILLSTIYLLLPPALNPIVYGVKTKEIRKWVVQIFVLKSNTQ
In short: as §1

UniProt Q8VG27 = target: T6, UniProt Q8VG27
T6 sequence (whole entry): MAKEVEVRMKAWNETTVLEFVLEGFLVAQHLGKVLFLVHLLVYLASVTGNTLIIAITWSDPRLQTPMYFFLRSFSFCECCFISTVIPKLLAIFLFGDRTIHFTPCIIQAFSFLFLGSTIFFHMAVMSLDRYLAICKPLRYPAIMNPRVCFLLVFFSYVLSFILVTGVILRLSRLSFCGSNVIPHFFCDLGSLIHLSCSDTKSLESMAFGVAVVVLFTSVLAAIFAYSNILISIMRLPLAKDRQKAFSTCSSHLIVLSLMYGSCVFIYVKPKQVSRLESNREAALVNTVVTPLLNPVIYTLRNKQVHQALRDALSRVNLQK
In short: as §1

UniProt Q8VEU7 = target: T7, UniProt Q8VEU7
T7 sequence (whole entry): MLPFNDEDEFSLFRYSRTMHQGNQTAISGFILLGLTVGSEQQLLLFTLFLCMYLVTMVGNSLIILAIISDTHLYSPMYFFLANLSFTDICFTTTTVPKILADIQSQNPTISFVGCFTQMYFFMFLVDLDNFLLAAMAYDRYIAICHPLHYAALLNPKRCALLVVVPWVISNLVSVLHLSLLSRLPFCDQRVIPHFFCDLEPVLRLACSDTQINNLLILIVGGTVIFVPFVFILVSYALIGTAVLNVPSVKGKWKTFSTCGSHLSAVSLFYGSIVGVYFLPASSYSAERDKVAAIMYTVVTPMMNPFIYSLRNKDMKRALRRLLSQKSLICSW
In short: as §1

UniProt Q8VF05 = target: T8, UniProt Q8VF05
T8 sequence (whole entry): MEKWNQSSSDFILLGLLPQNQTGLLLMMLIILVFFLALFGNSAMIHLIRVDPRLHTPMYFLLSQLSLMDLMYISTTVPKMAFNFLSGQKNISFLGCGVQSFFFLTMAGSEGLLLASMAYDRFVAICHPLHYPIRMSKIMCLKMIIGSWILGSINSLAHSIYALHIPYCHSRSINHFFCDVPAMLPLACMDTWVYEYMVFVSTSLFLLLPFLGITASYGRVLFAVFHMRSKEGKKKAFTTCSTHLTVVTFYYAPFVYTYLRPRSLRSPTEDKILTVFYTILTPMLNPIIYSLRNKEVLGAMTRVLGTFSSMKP
In short: as §1

UniProt Q8VF24 = target: T9, UniProt Q8VF24
T9 sequence (whole entry): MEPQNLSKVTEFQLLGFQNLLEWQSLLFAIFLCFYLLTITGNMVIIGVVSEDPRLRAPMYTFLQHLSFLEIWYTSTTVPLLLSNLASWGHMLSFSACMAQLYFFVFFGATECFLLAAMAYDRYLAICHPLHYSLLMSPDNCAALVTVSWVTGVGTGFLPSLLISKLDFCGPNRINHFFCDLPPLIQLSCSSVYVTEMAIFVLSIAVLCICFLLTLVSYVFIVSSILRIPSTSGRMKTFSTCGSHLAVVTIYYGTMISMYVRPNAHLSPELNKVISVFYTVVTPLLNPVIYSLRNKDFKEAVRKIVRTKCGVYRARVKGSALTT
In short: as §1

UniProt Q8VF44 = target: T10, UniProt Q8VF44
T10 sequence (whole entry): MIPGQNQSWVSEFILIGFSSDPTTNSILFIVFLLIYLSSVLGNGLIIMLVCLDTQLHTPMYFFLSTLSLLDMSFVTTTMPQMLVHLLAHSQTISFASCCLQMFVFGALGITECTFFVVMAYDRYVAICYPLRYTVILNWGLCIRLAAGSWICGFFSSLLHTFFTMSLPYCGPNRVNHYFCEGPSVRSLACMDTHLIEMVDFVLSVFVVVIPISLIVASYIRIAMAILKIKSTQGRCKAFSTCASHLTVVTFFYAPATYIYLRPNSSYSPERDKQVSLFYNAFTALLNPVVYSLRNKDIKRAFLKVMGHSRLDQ
In short: as §1

UniProt Q8VFG6 = target: T11, UniProt Q8VFG6
T11 sequence (whole entry): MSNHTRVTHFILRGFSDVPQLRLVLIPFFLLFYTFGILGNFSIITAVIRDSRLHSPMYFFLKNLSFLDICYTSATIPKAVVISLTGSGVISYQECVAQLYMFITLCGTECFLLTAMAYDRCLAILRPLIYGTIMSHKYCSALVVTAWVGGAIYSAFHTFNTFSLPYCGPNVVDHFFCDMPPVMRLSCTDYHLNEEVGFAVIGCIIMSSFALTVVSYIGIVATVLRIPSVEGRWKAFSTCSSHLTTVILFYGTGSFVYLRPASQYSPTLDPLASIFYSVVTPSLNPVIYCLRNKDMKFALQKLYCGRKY
In short: as §1

UniProt Q8VFZ6 = target: T12, UniProt Q8VFZ6
T12 sequence (whole entry): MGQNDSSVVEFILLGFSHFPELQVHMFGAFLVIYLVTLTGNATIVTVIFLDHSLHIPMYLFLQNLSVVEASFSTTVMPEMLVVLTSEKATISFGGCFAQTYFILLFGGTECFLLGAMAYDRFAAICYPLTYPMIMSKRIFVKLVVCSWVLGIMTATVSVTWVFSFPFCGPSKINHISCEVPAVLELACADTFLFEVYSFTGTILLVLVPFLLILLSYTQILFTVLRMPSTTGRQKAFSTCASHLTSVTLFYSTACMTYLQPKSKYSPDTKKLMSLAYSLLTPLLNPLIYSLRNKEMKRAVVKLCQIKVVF
In short: as §1

UniProt Q8VG22 = target: T13, UniProt Q8VG22
T13 sequence (whole entry): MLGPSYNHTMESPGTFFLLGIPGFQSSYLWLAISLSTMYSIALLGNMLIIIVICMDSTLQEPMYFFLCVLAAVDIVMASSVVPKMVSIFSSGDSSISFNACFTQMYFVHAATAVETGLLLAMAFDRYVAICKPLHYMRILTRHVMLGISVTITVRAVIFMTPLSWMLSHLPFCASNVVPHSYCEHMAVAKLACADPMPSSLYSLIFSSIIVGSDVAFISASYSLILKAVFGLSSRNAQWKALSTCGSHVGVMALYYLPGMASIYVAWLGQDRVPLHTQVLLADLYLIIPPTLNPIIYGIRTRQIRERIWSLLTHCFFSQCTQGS
In short: as §1

UniProt Q8VF06 = target: UniProt Q8VF06
In short: as §1

UniProt Q8VG26 = target: UniProt Q8VG26
In short: as §1

| Structure (SMILES) | odorant receptor agonist call (UniProt Q8VF43) | odorant receptor agonist call (UniProt Q8VF52) | odorant receptor agonist call (UniProt Q8VFM8) | odorant receptor agonist call (UniProt Q8VFP5) | odorant receptor agonist call (UniProt Q8VG01) | odorant receptor agonist call (UniProt Q8VG27) | odorant receptor agonist call (UniProt Q8VEU7) | odorant receptor agonist call (UniProt Q8VF05) | odorant receptor agonist call (UniProt Q8VF24) | odorant receptor agonist call (UniProt Q8VF44) | odorant receptor agonist call (UniProt Q8VFG6) | odorant receptor agonist call (UniProt Q8VFZ6) | odorant receptor agonist call (UniProt Q8VG22) | odorant receptor agonist call (UniProt Q8VF06) | odorant receptor agonist call (UniProt Q8VG26) |
| --- | --- | --- | --- | --- | --- | --- | --- | --- | --- | --- | --- | --- | --- | --- | --- |
| CCCCO | inactive | inactive | inactive | inactive | inactive | inactive | – | – | – | – | – | – | – | – | – |
| COc1cc(C=O)ccc1O | inactive | inactive | inactive | inactive | inactive | inactive | – | – | – | – | – | – | – | – | – |
| CCCCCC(C)=O | inactive | inactive | inactive | inactive | inactive | inactive | inactive | active | inactive | inactive | inactive | inactive | inactive | – | – |
| O=C1CCCCC1 | – | inactive | – | – | inactive | – | inactive | active | inactive | inactive | inactive | inactive | active | – | – |
| CCCCCCC=O | inactive | inactive | inactive | inactive | inactive | inactive | inactive | inactive | inactive | inactive | inactive | inactive | inactive | inactive | inactive |
| O=C1CCCCCCCCCCCCCCO1 | inactive | inactive | inactive | inactive | inactive | inactive | – | – | – | – | – | – | – | – | – |
| CC(C)C=O | inactive | inactive | inactive | inactive | inactive | inactive | – | – | – | – | – | – | – | – | – |
